# Primary screen of a compound library

Protein sequences, listed by entry. Tags and fused reporters are not part of them. Residues count along the entry.
UniProt Q8IDJ8, 1-583: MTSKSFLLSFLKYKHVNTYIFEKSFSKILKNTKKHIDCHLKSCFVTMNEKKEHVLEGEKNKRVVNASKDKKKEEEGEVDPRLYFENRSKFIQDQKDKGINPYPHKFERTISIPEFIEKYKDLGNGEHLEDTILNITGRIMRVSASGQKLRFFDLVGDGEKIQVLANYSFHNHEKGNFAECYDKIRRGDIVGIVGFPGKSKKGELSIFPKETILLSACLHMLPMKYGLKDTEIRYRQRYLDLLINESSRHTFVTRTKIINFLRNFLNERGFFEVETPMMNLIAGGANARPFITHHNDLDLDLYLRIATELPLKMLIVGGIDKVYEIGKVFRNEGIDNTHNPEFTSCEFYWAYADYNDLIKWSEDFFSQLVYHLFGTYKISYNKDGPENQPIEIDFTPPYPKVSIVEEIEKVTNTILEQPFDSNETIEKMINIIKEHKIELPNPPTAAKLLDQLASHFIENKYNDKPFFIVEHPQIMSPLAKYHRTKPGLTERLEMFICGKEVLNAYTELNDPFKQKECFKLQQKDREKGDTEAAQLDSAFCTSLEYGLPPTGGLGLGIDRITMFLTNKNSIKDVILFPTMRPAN

Data taken from ChEMBL document CHEMBL3988442, “University of Dundee, Small-Polar-MMV Screening Library” (2021).

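Enzyme assay of the cytosolic lysyl-tRNA synthetase in 384-well plates, read by luminescence. Target: Lysine-tRNA ligase, Plasmodium falciparum 3D7 (UniProt Q8IDJ8). Tested at 30 µM. Direction is inferred from only a few compounds that gave an IC50; most scored high, so higher reads as stronger inhibition. About 69,000 compounds were tested under these conditions; 0.071% (about 49) showed 50% or more at least once.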

Values are the deposited “Percent Effect”, in %. How 0% and 100% were set is not recorded. Most values in the screen are low, and negative values occur. Compounds were drawn at random from those tested, without regard to their results.

SMILES,percent effect
CCn1c(=O)n(Cc2nc(C3CC3)no2)c2ccccc21,3.912%
Cn1cc(CN2CCc3onc(C(=O)N4CCCC4)c3C2)cn1,2.635%
c1ccc(CN2CCN(Cc3cscn3)CC2)cc1,3.333%
Cn1ncc2c(=O)[nH]c(CN3CCCC3CCc3ccccc3)nc21 (stereo unspecified),0.1553%
CNc1nc(C2CCCN2)nc2c1CCN(S(=O)(=O)C1CCCCC1)C2 (stereo unspecified),8.296%
Cn1cc(NC(=O)Cc2ccccc2Br)cc1C(N)=O,1.23%
COc1cc(N2CC[C@@H](O)[C@@H]2Cc2ccccc2)ncn1,4.234%
COc1cc(OC)c(C2SCC(=O)Nc3n[nH]cc32)cc1OC (stereo unspecified),3.796%
O=C(c1scc2c1OCCO2)N1CCOC(Cc2ccc(F)cc2)C1 (stereo unspecified),5.944%
COc1ccc2oc(-c3cn(C)nc3C)c(O)c(=O)c2c1,-1.519%
Cc1cc(=O)n(CC(=O)NC2CCCCC2)c2ccccc12,-0.4224%
CS(=O)(=O)NC1CCCN(c2ccc(C#N)cn2)C1 (stereo unspecified),0.1923%
COCCCn1cnnc1CNC(=O)c1[nH]c2c(C)cc(C)cc2c1C,4.908%
CCOCC1c2c(ncn2C)CCN1C(=O)c1cscn1 (stereo unspecified),-1.313%
COC(=O)c1ccc(CN(C)C(=O)c2cnsn2)cc1,-1.819%
COCCN1CCN(Cc2ccoc2)Cc2cccnc21,2.615%
N#Cc1ccccc1OCCN1CCn2c(nnc2C2CC2)C1,3.768%
CS(=O)(=O)NCC1CCCCN1Cc1cccc(C#N)c1 (stereo unspecified),0.8553%
COc1ccc(OC)c(C2CCN(C(=O)C3CCOCC3)C2)c1 (stereo unspecified),3.739%
C[C@H]1C(=O)NC[C@H]2CN(Cc3ccccc3)C[C@H]21,0.9436%
CNCCc1nc2cc(Cl)ccc2[nH]1,-3.626%
O=C(CCO)N1CCOC2(CCCN(C(=O)c3ccco3)C2)C1 (stereo unspecified),2.232%
CN1CC(=O)N(c2cccc(F)c2)CC12CCN(CC1CC1)C2 (stereo unspecified),5.946%
CC(C)n1ccnc1C1CCN(C(=O)c2ccccc2)CC1,1.736%
CCN1c2ccc(-c3cncn3CCCn3ccnc3C)cc2CC1C (stereo unspecified),-0.006754%
CCCN(CCC)S(=O)(=O)c1cc(NC(C)=O)ccc1C,2.894%
O=C(Nc1ccccc1Cn1cncn1)C1CCN(C2CCCCC2)C1 (stereo unspecified),-1.169%
O=C(CCc1ccc(-n2cnnn2)cc1)Nc1nncs1,-0.549%
COCCNC(=O)NC1(c2nc(-c3ccncc3)no2)CCCCC1,3.135%
COc1ccc(CN2CCO[C@@H]3C[C@@H](C(=O)NC(C)C)C[C@H]32)cc1,6.971%
Cc1cc(C(F)(F)F)nc(N(C)Cc2c(C)noc2C)n1,2.478%
O[C@@]1(CNCC2(Cn3ccnc3)CC2)CCCN2CCCC[C@@H]21,3.502%
Cn1ccc(NCc2cc3cc(F)ccc3o2)n1,2.357%
O=C(NCCNc1cnccn1)N1CC=C(c2ccc(O)cc2)CC1,3.65%
CN(CC(=O)N1CCC(Cc2cccc(C(N)=O)c2)C1)C1CCCC1 (stereo unspecified),-3.738%
COc1cccc(-c2nc(CC(=O)NC3(C)CCS(=O)(=O)C3)cs2)c1 (stereo unspecified),-0.2909%
COCc1c(Br)cccc1NC(=O)CC(F)(F)F,3.56%
Cc1noc([C@@H]2C[C@H]3OCC[C@H]3N(S(=O)(=O)c3cccnc3)C2)n1,-6.712%
Cc1ccc(NC2CCN(C(=O)c3cccnc3N(C)C)CC2)nn1,1.026%
CN(Cc1ncc(-c2ccccc2)o1)C1CCCN(c2cccnn2)C1 (stereo unspecified),0.9321%
COc1ccc(CNC(C)c2cccc(Cl)c2)c(OC)c1OC (stereo unspecified),1.602%
Cc1cnn(CC2CCCN2Cc2cc(=O)n3ccccc3n2)c1 (stereo unspecified),1.567%
O=C(NC[C@]1(O)CCN(Cc2ccsc2)C[C@H]1O)c1c[nH]cn1,-0.2229%
Cc1ocnc1C(=O)N(C)[C@@H]1CCC[C@@H](N2CCCC2)[C@@H]1O,-0.304%
O=C1CCC2(CCCN(c3ncc(F)cn3)CC2)N1CC1CC1 (stereo unspecified),4.803%
CC1CCC(NC(=O)CNC2(c3ccc(Br)cc3)CCOCC2)CC1 (stereo unspecified),8.088%
COc1ccc2[nH]cc(-c3ccnc(N4CCC(C)CC4)n3)c2c1,3.071%
Cc1ccc(CN(C)C(=O)CN2CCCCC2Cn2cncn2)cc1 (stereo unspecified),0.7715%
NC(=O)CN(C(=O)C1Cc2cc(Cl)ccc2O1)C1CCCC1 (stereo unspecified),-2.571%
Cn1cnc(S(=O)(=O)N2CCCc3cccc(F)c32)c1Cl,3.339%
Cc1nc(C)c(C(C)NC(=O)NCCNc2cccc(F)c2C#N)s1 (stereo unspecified),2.285%
Oc1cc(C2CCCCN2C2CCCC2)nc(-c2ccncc2)n1 (stereo unspecified),2.289%
Cc1nc(CN2CCN(C)C(=O)C23CCN(C(C)C)CC3)cs1,4.834%
CC(C)(C)c1ncc2c(n1)CN(C(=O)c1ccc3[nH]cnc3c1)C2,2.646%
CCCN1CCC(N2CCN(c3cc(C)nc(C)c3)CC2)CC1,3.243%
CCC(C)Oc1cc(C(=O)Nc2nc(C)ns2)ccn1 (stereo unspecified),3.797%
CCOc1ccccc1CC(=O)N1CCCC(c2ncc[nH]2)C1 (stereo unspecified),10.77%
CC(C)NC(=O)NCc1nnc2n1C(C(=O)N(C)C)CC2 (stereo unspecified),-2.077%
CN(Cc1ccc(-n2cccn2)cc1)Cc1ncc[nH]1,1.432%
CCn1c(C)cc(C(=O)N2CCCC(C(=O)c3nccn3C)C2)c1C (stereo unspecified),11.29%
c1csc(CN2CCn3c(Cn4cncn4)cnc3C2)c1,-1.881%
CC1CCCN(CCNC(=O)c2cncnc2C(C)C)C1 (stereo unspecified),7.47%
COc1cccc2cc(CNCc3ccnc(N4CCOCC4)c3)oc12,-3.179%
CCSCCNc1cc(C)nc2c(C)c(C)nn12,0.9856%
O=C(NCCN1CCOCC1)c1cc(-c2ccc(Cl)s2)[nH]n1,4.355%
CCOCCC(=O)N(CCC#N)c1ccc(C)c(C)c1,0.8051%
CC(C)Cc1ncc2c(n1)CN(c1cc(NC3CC3)nc(N)n1)C2,1.533%
CCS(=O)(=O)c1ccccc1C(=O)NCc1ccnc(N(C)C)c1,2.771%
CN(Cc1noc2c1CCCC2)C(=O)Cn1c(=O)cnc2ccccc21,6.453%
O=C(NCC1Cn2nnc(-c3ccoc3)c2CO1)c1ccc[nH]1 (stereo unspecified),6.332%
CN1CCC2(CCCN(c3nccc(C(F)(F)F)n3)C2)CC1,1.973%
CCOCCCNC(=O)C1(C)CCC(=O)N1c1ccccc1OC (stereo unspecified),0.6654%
COCc1nc(CN2CC(Cc3ccccc3)CC2=O)no1 (stereo unspecified),9.261%
O=S(=O)(c1cnccc1N1CCN(CCO)CC1)N1CCOCC1,3.818%
O=C(c1cn[nH]c1)N1CCC2(CCCN(Cc3ccc(F)c(F)c3)C2)C1 (stereo unspecified),0.03657%
CC(C)Cc1nnc(NC(=O)NC(CCO)c2cccs2)s1 (stereo unspecified),3.339%
NC(=O)C1(CCCc2ccccn2)CCCN(Cc2ccncc2)C1 (stereo unspecified),2.821%
CC(NC(=O)c1cc2n(n1)CCCN(C)C2)c1cn2ncsc2n1 (stereo unspecified),7.775%
CCc1ccc(CN2CCc3ncnc(N4CCOCC4)c3CC2)o1,2.432%
CS(=O)(=O)N1CCN(c2cc(N3CCCC3CO)ncn2)CC1 (stereo unspecified),2.706%
CCCn1cc(C(=O)N2CCCC2(C)c2nc(C)cc(N)n2)cn1 (stereo unspecified),0.9611%
O=C(c1ccc2c(c1)COC2)N1CCN(CC2CC2)CC1,5.677%
Cc1cc(C)n(CC2CCCN2C(=O)c2cccc3[nH]ncc23)n1 (stereo unspecified),0.9218%
Cc1cnc(CN(C)C2CCN(Cc3nc4c(F)cccc4[nH]3)C2)o1 (stereo unspecified),0.5155%
CC(=O)N1CCN(C(=O)CCc2cc(Br)cs2)CC1,4.836%
CC(CC(=O)c1ccco1)NC(=O)c1ccccn1 (stereo unspecified),2.052%
Cc1ccc(NC(=O)Cn2ccc3c(=O)n(C)ccc32)cc1F,2.686%
C=C1c2ccccc2C(=O)N1CCC(=O)N1CCNC(=O)C1,8.671%
Cn1cc(-c2cnc(N3CCOCC3)nc2)cc1C(=O)O,7.454%
Cc1nccn1-c1ccc(=O)n(CCNC(=O)c2c(F)cccc2Cl)n1,-1.133%

The first 5 entries again:

{"smiles": "CCn1c(=O)n(Cc2nc(C3CC3)no2)c2ccccc21", "percent effect": 3.912}
{"smiles": "Cn1cc(CN2CCc3onc(C(=O)N4CCCC4)c3C2)cn1", "percent effect": 2.635}
{"smiles": "c1ccc(CN2CCN(Cc3cscn3)CC2)cc1", "percent effect": 3.333}
{"smiles": "Cn1ncc2c(=O)[nH]c(CN3CCCC3CCc3ccccc3)nc21", "stereo": "stereo unspecified", "percent effect": 0.1553}
{"smiles": "CNc1nc(C2CCCN2)nc2c1CCN(S(=O)(=O)C1CCCCC1)C2", "stereo": "stereo unspecified", "percent effect": 8.296}